{"source": "patent US20030180339A1", "about": "“Topical treatment of skin” (priority 2002, published 2003)", "key": {"sebum [1]": {"test_system": "sebum", "experiment": "Sebum-reducing activity of moisturizing gels vs elubiol gel, Sebumeter SM 810, Philippine teenagers with oily skin (Example 32)", "assay_type": "in vivo, human", "settings": "week 12; gel twice a day; baseline 124-138 μg/cm^2; range printed for all groups together"}, "sebum [2]": {"test_system": "sebum", "experiment": "Similar sebum trial on Australian teenagers (Example 33)", "assay_type": "in vivo, human", "settings": "week 12; baseline 145-155 μg/cm^2; range printed for all groups together"}}, "note": "Some entries share one result that the patent states for a list of compounds. At least one structure is not confirmed: it was looked up by name or label, or the drawing left a doubt."}
{"smiles": "CCOC(=O)N1CCN(c2ccc(OC[C@H]3CO[C@](Cn4ccnc4)(c4ccc(Cl)cc4Cl)O3)cc2)CC1", "note": "[Elubiol, dichlorophenyl-imidazoltioxolan]", "values": [{"measurement": "Mean sebum readings", "setting": "sebum [1]", "value": "68-81 μg/cm^2"}, {"measurement": "sebum readings", "setting": "sebum [2]", "value": "117-124 μg/cm^2"}]}
